Results from PubChem BioAssay (EPA / NIEHS).
Values joined by “and” are separate entries in the source; they are usually repeats but may differ in a detail not shown here. Equal entries are not always repeated. The shares of active, inactive and inconclusive entries below differ from those in the screen. Where the call is inconclusive, the potency comes from a doubtful curve fit. Active and inactive are the calls of the source. Rule for the calls: active = hit-call score of the fitted dose curve at least 0.9, where 1 is the maximum; inconclusive = response in the unintended direction; inactive = score below 0.9.

Test: ACEA_ER_AUC_viability: ACEA Biosciences xCELLigence Real-Time Cell Analysis on Estrogen Receptor Agonism for Viability (AID 2283782);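 note: hit means loss of impedance signal meaning reduced cell growth or viability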
How it was run: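 Continuous-exposure impedance cell analysis uses T-47D cells in charcoal-stripped serum, eight 1:4 dilutions topping at 100 uM final, biological duplicate. Area under the growth curve at 80 h is fitted against DMSO baseline.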

Row | SMILES | AC50 | outcome
1 | COC(=O)NC(=S)Nc1ccccc1NC(=S)NC(=O)OC | inconclusive: 10.2 µM | 
2 | Brc1ccc(Oc2ccccc2)cc1 |  | inactive
3 | N#Cc1cc([N+](=O)[O-])ccc1N | inconclusive: 50 µM | 
4 | CN/C(=N\[N+](=O)[O-])NCc1cnc(Cl)s1 | inconclusive: 0.0193 µM | 
5 | CNC(=O)ON=C(CSC)C(C)(C)C |  | inactive
6 | CC(=O)c1cc(C(C)(C)C)cc2c1CCC2(C)C |  | inactive
7 | CCC(C)c1cccc(C(C)CC)c1O (centres undefined) | active: 77.1 µM | 
8 | Cc1cc(C)nc(Nc2ccccc2)n1 |  | inactive
9 | NN=C(N)N | inconclusive: 0.371 µM | 
10 | CC[C@H](C)[C@H]1O[C@]2(C=C[C@@H]1C)C[C@@H]1C[C@@H](C/C=C(\C)[C@@H](O[C@H]3C[C@H](OC)[C@@H](O[C@H]4C[C@H](OC)[C@@H](NC)[C@H](C)O4)[C@H](C)O3)[C@@H](C)/C=C/C=C3\CO[C@@H]4[C@H](O)C(C)=C[C@@H](C(=O)O1)[C@]34O)O2 | active: 1.82 µM | 
11 | C1CC2OC2CC1C1CO1 (centres undefined) | inconclusive: 50 µM | 
12 | COc1cnc(OC)n2nc(NS(=O)(=O)c3c(OCC(F)F)cccc3C(F)(F)F)nc12 | inconclusive: 50 µM | 
13 | Nc1ccc(N)cc1 | active: 49.8 µM | 
14 | CCCCOCCOC(C)=O | inconclusive: 14.6 µM | 
15 | O=C(O)C(F)(OC(F)(F)C(F)(F)C(F)(F)F)C(F)(F)F (centres undefined) | inconclusive: 75 µM and inconclusive: 81.3 nM | 
16 | Clc1ccc(C2(Cn3cncn3)CC(Br)CO2)c(Cl)c1 (centres undefined) | inconclusive: 49.8 µM | 
17 | c1ccc2c(c1)sc1ccccc12 | inconclusive: 88.5 µM | 
18 | Cc1ccccc1CCl |  | inactive
19 | Nc1ccc(Cl)c(Cl)c1 | inconclusive: 0.00884 µM | 
20 | O=S(=O)(O)C(F)(F)C(F)(F)C(F)(F)C(F)(F)C(F)(F)C(F)(F)F | inconclusive: 0.00686 µM | 

Row | SMILES | AC50 | outcome
21 | C=C(C)C(=O)[O][Sn]([CH2]CCC)([CH2]CCC)[CH2]CCC | active: 1.43 µM | 
22 | CC(C)N1C(=O)c2ccccc2NS1(=O)=O |  | inactive
23 | CC1(C(=O)Nc2ccc(O)c(Cl)c2Cl)CCCCC1 | inconclusive: 10.4 µM | 
24 | C[C@@H](Oc1ccc(Cl)cc1Cl)C(=O)O |  | inactive
25 | BrCCCCBr |  | inactive
26 | Oc1ccc(Cl)cc1Cl | inconclusive: 50 µM | 
27 | COC(=O)Nc1cccc(OC(=O)Nc2cccc(C)c2)c1 | inconclusive: 50 µM | 
28 | Oc1ccc(Cl)cc1Cc1ccccc1 | active: 18.3 µM [middle of 9 runs] | 
29 | CCC(C)(CC)c1cc(NC(=O)c2c(OC)cccc2OC)on1 | inconclusive: 50 µM | 
30 | CCOP(=S)(Oc1ccc([N+](=O)[O-])cc1)c1ccccc1 (centres undefined) | inconclusive: 50 µM | 
31 | Brc1ccc(Br)cc1 |  | inactive
32 | CC(C)(C)C(=O)CCl |  | inactive
33 | C#CCN1C(=O)COc2cc(F)c(N3C(=O)C4=C(CCCC4)C3=O)cc21 | inconclusive: 60 µM | 
34 | N#Cc1cccnc1 |  | inactive
35 | N#Cc1ccccc1N | inconclusive: 50 µM | 
36 | CCC1(c2ccccc2)C(=O)N=C(O)NC1=O (centres undefined) | inconclusive: 49 µM | 
37 | O=C(NC(=O)c1c(F)cccc1F)Nc1cc(Cl)c(OC(F)(F)C(F)F)c(Cl)c1 | inconclusive: 0.197 µM | 
38 | O=C(O)C(F)(F)C(F)(F)C(F)(F)C(F)(F)C(F)(F)C(F)(F)F | inconclusive: 50 µM and inconclusive: 351 nM | 
39 | Cc1cc(C)c(C(=O)P(=O)(c2ccccc2)c2ccccc2)c(C)c1 | active: 73.1 µM | 

Reformatted: results already given

| Row | SMILES | AC50 | outcome |
| --- | --- | --- | --- |
| 29 | CCC(C)(CC)c1cc(NC(=O)c2c(OC)cccc2OC)on1 | inconclusive: 50 µM |  |
| 30 | CCOP(=S)(Oc1ccc([N+](=O)[O-])cc1)c1ccccc1 (centres undefined) | inconclusive: 50 µM |  |
| 31 | Brc1ccc(Br)cc1 |  | inactive |
| 32 | CC(C)(C)C(=O)CCl |  | inactive |
| 33 | C#CCN1C(=O)COc2cc(F)c(N3C(=O)C4=C(CCCC4)C3=O)cc21 | inconclusive: 60 µM |  |
| 34 | N#Cc1cccnc1 |  | inactive |
| 35 | N#Cc1ccccc1N | inconclusive: 50 µM |  |
| 36 | CCC1(c2ccccc2)C(=O)N=C(O)NC1=O (centres undefined) | inconclusive: 49 µM |  |
